Laboratory results from paper PMC5720810.
No constants are given. Whether binding was seen depends on the method and setting. Binding seen in cells or lysates may run through a third protein. Some results given as binding are weak or reduced against the parent protein; the word gives no strength. Tags and fused reporters may be left off the sequences shown.

Key:
[1] = target: T1, TAP-tagged Spt4 (wild type) (S. cerevisiae (BY4741)) (UniProt P32914); assay: co-IP; TAP-tagged Spt4 precipitated on rabbit IgG agarose from yeast protein extracts (5 mg), 2-3 h at 4°C, buffer A with 150 mM NaCl washes; cells with or without 0.4 M NaCl for 10 min; Spt5-9myc detected with anti-myc (9E10), RNA Pol II with anti-Rpb1 (8WG16)
T1 sequence: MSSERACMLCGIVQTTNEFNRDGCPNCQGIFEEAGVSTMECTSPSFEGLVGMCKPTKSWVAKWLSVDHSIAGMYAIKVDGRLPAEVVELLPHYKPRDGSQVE

[2] = target: T2, TAP-tagged Spt4^T42AS43A (non-phosphorylatable mutant) (S. cerevisiae (BY4741)) (UniProt P32914); assay: as above
T2 sequence: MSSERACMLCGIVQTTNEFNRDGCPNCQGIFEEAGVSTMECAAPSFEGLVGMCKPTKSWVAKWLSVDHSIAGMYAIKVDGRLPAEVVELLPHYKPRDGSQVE

binding [1]: binds
binding [2]: binds
B1: 9myc-tagged Spt5 (protein, UniProt P27692 1-1063)
chain: MSDNSDTNVSMQDHDQQFADPVVVPQSTDTKDENTSDKDTVDSGNVTTTESTERAESTSNIPPLDGEEKEAKSEPQQPEDNAETAATEQVSSSNGPATDDAQATLNTDSSEANEIVKKEEGSDERKRPREEDTKNSDGDTKDEGDNKDEDDDEDDDDDDDDEDDDDEAPTKRRRQERNRFLDIEAEVSDDEDEDEDEEDSELVREGFITHGDDEDDEASAPGARRDDRLHRQLDQDLNKTSEEDAQRLAKELRERYGRSSSKQYRAAAQDGYVPQRFLLPSVDTATIWGVRCRPGKEKELIRKLLKKKFNLDRAMGKKKLKILSIFQRDNYTGRIYIEAPKQSVIEKFCNGVPDIYISQKLLIPVQELPLLLKPNKSDDVALEEGSYVRIKRGIYKGDLAMVDQISENNLEVMLKIVPRLDYGKFDEIDPTTQQRKSRRPTFAHRAPPQLFNPTMALRLDQANLYKRDDRHFTYKNEDYIDGYLYKSFRIQHVETKNIQPTVEELARFGSKEGAVDLTSVSQSIKKAQAAKVTFQPGDRIEVLNGEQRGSKGIVTRTTKDIATIKLNGFTTPLEFPISTLRKIFEPGDHVTVINGEHQGDAGLVLMVEQGQVTFMSTQTSREVTITANNLSKSIDTTATSSEYALHDIVELSAKNVACIIQAGHDIFKVIDETGKVSTITKGSILSKINTARARVSSVDANGNEIKIGDTIVEKVGSRREGQVLYIQTQQIFVVSKKIVENAGVFVVNPSNVEAVASKDNMLSNKMDLSKMNPEIISKMGPPSSKTFQQPIQSRGGREVALGKTVRIRSAGYKGQLGIVKDVNGDKATVELHSKNKHITIDKHKLTYYNREGGEGITYDELVNRRGRVPQARMGPSYVSAPRNMATGGIAAGAAATSSGLSGGMTPGWSSFDGGKTPAVNAHGGSGGGGVSSWGGASTWGGQGNGGASAWGGAGGGASAWGGQGTGATSTWGGASAWGNKSSWGGASTWASGGESNGAMSTWGGTGDRSAYGGASTWGGNNNNKSTRDGGASAWGNQDDGNRSAWNNQGNKSNYGGNSTWGGH
